Results are given in words; binding and its absence hold for the method and conditions named. Binding seen in cells or lysates may run through a third protein. Here binding means that the protein was enriched with, or labelled near, the bait; the list need not be complete. For some assays here: No binding means not detected with the bait.
T1: [4Fe-4S] cluster-binding protein associated with FDH, FDHγ4 (Thermococcus kodakarensis) (UniProt Q5JHV8)
T1 sequence: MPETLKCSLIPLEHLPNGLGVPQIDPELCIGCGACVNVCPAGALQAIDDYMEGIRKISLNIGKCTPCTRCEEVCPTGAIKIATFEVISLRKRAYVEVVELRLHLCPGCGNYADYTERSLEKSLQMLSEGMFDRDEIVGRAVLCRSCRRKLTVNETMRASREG

The chains behind the UniProt entries cited, without tags or fusion partners. Where a name states a change or a piece, a line headed by the entry shows the natural chain unless it says otherwise.
UniProt Q5JE61: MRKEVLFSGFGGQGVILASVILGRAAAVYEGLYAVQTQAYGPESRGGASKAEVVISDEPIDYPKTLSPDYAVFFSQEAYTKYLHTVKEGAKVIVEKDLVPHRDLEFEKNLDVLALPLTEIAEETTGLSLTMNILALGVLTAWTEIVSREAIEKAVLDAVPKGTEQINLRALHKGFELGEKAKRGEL

T2: [4Fe-4S] cluster-binding protein associated with FDH, FDHγ2 (Thermococcus kodakarensis) (UniProt Q5JHW1)
T2 sequence: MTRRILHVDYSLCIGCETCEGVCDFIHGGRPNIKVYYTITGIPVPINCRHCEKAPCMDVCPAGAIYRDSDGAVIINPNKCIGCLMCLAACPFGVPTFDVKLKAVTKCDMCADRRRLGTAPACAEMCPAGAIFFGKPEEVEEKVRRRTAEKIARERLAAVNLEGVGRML

T3: 2-Oxoacid:ferredoxin oxidoreductase, α2 subunit (Thermococcus kodakarensis) (UniProt Q5JE85)
T3 sequence: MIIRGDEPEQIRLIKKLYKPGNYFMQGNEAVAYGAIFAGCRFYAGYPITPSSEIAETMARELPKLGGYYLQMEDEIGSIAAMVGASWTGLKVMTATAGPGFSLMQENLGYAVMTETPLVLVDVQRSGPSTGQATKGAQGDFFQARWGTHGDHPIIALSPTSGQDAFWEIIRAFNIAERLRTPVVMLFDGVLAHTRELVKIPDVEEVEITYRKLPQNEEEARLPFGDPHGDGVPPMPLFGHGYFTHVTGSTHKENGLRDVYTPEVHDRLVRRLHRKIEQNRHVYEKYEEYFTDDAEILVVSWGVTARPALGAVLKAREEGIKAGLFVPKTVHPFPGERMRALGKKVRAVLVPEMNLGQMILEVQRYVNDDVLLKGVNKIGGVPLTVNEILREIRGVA

T4: 2-Oxoacid:ferredoxin oxidoreductases, β2 subunit (Thermococcus kodakarensis) (UniProt Q5JE71)
T4 sequence: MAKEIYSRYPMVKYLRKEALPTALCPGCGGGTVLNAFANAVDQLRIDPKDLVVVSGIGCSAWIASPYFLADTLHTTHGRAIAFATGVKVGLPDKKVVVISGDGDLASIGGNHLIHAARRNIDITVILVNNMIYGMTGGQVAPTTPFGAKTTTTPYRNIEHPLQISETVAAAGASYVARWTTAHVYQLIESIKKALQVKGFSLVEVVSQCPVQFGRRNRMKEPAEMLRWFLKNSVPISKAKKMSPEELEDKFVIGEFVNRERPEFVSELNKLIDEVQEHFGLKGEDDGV


How the values were obtained:
[1] = target: T1, [4Fe-4S] cluster-binding protein associated with FDH, FDHγ4 (Thermococcus kodakarensis); assay: affinity purification with mass spectrometry; HA- and His6-tagged bait made from its native locus, captured from clarified T. kodakarensis lysate on a Ni2+-charged chelating column (buffer A: 10 mM Tris HCl pH 8.0, 500 mM NaCl, 10% glycerol), eluted with an imidazole gradient; pooled fractions identified by MuDPIT LC-MS/MS and compared with the parental strain TS559 (P < 0.05, log2 fold change ≥ 2); cells grown at 85°C with (+S˚) or without (–S˚) elemental sulfur
[2] = target: T2, [4Fe-4S] cluster-binding protein associated with FDH, FDHγ2 (Thermococcus kodakarensis); assay: as above
[3] = target: T1, [4Fe-4S] cluster-binding protein associated with FDH, FDHγ4 (Thermococcus kodakarensis); assay: affinity purification with mass spectrometry; as a1, only the purifications from cells grown without elemental sulfur (–S˚)
[4] = target: 2-Oxoacid:ferredoxin oxidoreductase, γ1 subunit (Thermococcus kodakarensis) (UniProt Q5JE61); assay: affinity purification with mass spectrometry; HA- and His6-tagged bait made from its native locus, captured from clarified T. kodakarensis lysate on a Ni2+-charged chelating column (buffer A: 10 mM Tris HCl pH 8.0, 500 mM NaCl, 10% glycerol), eluted with an imidazole gradient; pooled fractions identified by MuDPIT LC-MS/MS and compared with the parental strain TS559 (P < 0.05, log2 fold change ≥ 2); cells grown at 85°C with (+S˚) or without (–S˚) elemental sulfur
[5] = target: 2-Oxoacid:ferredoxin oxidoreductase, γ1 subunit (Thermococcus kodakarensis) (UniProt Q5JE61); assay: affinity purification with mass spectrometry; as a1, only the purifications from cells grown with elemental sulfur (+S˚)
[6] = target: T3, 2-Oxoacid:ferredoxin oxidoreductase, α2 subunit (Thermococcus kodakarensis); assay: affinity purification with mass spectrometry; HA- and His6-tagged bait made from its native locus, captured from clarified T. kodakarensis lysate on a Ni2+-charged chelating column (buffer A: 10 mM Tris HCl pH 8.0, 500 mM NaCl, 10% glycerol), eluted with an imidazole gradient; pooled fractions identified by MuDPIT LC-MS/MS and compared with the parental strain TS559 (P < 0.05, log2 fold change ≥ 2); cells grown at 85°C with (+S˚) or without (–S˚) elemental sulfur
[7] = target: T4, 2-Oxoacid:ferredoxin oxidoreductases, β2 subunit (Thermococcus kodakarensis); assay: as above

binding [1]	binding [2]	binding [3]	binding [4]	binding [5]	binding [6]	binding [7]	Binder
binds	binds	no binding (only cells grown without S˚)	–	–	–	–	Formate dehydrogenase, [4Fe-4S] cluster-binding protein, FDHγ3 (protein, UniProt Q5JHV9 1-166) MARKTVFIDFSKCIECRACEVACEREHNGRSFINVFEWQEMAAMALNCRHCEKAPCLEVCPTNALYRDGDGAVLLAPQKCIGCLMCGIVCPFGIPELDSLDKIMMKCDLCAHRRAEGKLPACVETCPTDALLFGDFNDIQRMRRQKFTEKAIEIAKSGERIQFRGV
–	–	–	binds	no binding (only cells grown with S˚)	–	–	2-Oxoacid:ferredoxin oxidoreductases, β2 subunit (protein, UniProt Q5JE71 1-288) MAKEIYSRYPMVKYLRKEALPTALCPGCGGGTVLNAFANAVDQLRIDPKDLVVVSGIGCSAWIASPYFLADTLHTTHGRAIAFATGVKVGLPDKKVVVISGDGDLASIGGNHLIHAARRNIDITVILVNNMIYGMTGGQVAPTTPFGAKTTTTPYRNIEHPLQISETVAAAGASYVARWTTAHVYQLIESIKKALQVKGFSLVEVVSQCPVQFGRRNRMKEPAEMLRWFLKNSVPISKAKKMSPEELEDKFVIGEFVNRERPEFVSELNKLIDEVQEHFGLKGEDDGV
–	–	–	binds	–	no binding	no binding	OGORα1 (TK1125) (protein, UniProt Q5JE59 1-382) MRYPFPVGKADFIQGDEAIARAAILAGCRFYAGYPITPASEIFEAMALYMPLVDGVSIQMEDEIASIAAIIGASWAGAKAMTATSGPGFSLMQENIGYAVMTETPIVVVDVQRGGPSTGQPTLAAQGDIMQSIWGTHGDHTLIVLSPSTVQEAFDFTIRAFNLAEKYRTPVVLLTDAEVAHMRERVYIPNPDDIELVYRKLPQNEEEAKLPFGDPHGDGIPPMPIFGKGYRTYVTGLTHDERGRPKTVDAEVHERLIKRIIGKIENNKHDIISYEKFELDDADVAIVSTGIVSRSAIRAVKILREKGIKAGLLKLNTIWPFDFDMMEELAEQVKKIFVPEMNMGQLYHLVKEGANGKAEVELISKIGGEVHTPMEIVERVVG

— paper PMC12016516
